Paper PMC3178579
No constants are given. Whether binding was seen depends on the method and setting. In cells and extracts the contact can be indirect. Some entries that bind do so weakly or less than the wild type.

By UniProt entry, the sequences of proteins in these tests, tags left out.
UniProt O88498: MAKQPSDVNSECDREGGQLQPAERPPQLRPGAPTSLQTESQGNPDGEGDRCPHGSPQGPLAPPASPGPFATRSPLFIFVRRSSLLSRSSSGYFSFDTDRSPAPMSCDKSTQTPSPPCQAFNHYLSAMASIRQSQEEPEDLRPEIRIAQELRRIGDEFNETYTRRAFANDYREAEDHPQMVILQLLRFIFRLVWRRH
UniProt Q9Z1P3: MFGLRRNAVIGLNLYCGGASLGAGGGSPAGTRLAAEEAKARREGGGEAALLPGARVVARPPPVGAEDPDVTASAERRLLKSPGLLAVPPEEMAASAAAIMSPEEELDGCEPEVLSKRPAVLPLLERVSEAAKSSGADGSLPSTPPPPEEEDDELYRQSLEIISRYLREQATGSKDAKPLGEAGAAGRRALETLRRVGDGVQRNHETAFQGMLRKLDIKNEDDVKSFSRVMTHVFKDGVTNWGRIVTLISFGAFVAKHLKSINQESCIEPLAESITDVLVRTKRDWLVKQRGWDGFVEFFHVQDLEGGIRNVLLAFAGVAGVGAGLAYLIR

Target: BCL2-like 11 (Bim) (rat (endogenous in INS-1E)) (UniProt O88498)
Assay: co-IP; INS-1E cell lysate in immunoprecipitation buffer; rabbit anti-BIM antibody overnight at 4°C, protein A-agarose; blot with anti-Mcl-1 and anti-BIM; cells untreated or transfected with dsRNA (PIC) for 24h (association clearly decreased after PIC)

## myeloid cell leukemia sequence 1 (Mcl-1) (from UniProt Q9Z1P3 1-330)
  binding: binds
